The results in this text go back to paper PMC10803552.

By UniProt entry, the sequences of proteins in these tests, tags left out. Residues count along the entry.
UniProt P24394, residues 26-825: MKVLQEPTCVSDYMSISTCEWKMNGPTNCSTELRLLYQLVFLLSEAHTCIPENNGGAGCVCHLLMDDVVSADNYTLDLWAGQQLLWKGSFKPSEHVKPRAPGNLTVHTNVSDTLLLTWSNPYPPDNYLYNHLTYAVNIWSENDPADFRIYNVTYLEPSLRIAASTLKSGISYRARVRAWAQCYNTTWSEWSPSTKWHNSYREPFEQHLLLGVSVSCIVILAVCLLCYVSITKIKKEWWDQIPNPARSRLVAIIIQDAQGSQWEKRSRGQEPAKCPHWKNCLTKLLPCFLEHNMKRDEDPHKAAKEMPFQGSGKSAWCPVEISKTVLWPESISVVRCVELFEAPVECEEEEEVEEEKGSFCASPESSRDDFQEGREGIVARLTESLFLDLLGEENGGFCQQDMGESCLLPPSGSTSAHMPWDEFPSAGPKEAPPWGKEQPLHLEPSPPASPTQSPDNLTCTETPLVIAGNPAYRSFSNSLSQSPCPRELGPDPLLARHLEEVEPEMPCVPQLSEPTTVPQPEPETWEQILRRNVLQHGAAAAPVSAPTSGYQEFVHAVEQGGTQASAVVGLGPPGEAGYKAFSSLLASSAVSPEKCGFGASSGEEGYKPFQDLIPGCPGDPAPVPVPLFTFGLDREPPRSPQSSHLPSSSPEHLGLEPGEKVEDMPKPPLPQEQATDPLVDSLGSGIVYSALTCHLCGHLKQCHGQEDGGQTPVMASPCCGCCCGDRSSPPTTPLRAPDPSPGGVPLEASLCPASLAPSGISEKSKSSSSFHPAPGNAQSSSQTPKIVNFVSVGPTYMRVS
UniProt P23458: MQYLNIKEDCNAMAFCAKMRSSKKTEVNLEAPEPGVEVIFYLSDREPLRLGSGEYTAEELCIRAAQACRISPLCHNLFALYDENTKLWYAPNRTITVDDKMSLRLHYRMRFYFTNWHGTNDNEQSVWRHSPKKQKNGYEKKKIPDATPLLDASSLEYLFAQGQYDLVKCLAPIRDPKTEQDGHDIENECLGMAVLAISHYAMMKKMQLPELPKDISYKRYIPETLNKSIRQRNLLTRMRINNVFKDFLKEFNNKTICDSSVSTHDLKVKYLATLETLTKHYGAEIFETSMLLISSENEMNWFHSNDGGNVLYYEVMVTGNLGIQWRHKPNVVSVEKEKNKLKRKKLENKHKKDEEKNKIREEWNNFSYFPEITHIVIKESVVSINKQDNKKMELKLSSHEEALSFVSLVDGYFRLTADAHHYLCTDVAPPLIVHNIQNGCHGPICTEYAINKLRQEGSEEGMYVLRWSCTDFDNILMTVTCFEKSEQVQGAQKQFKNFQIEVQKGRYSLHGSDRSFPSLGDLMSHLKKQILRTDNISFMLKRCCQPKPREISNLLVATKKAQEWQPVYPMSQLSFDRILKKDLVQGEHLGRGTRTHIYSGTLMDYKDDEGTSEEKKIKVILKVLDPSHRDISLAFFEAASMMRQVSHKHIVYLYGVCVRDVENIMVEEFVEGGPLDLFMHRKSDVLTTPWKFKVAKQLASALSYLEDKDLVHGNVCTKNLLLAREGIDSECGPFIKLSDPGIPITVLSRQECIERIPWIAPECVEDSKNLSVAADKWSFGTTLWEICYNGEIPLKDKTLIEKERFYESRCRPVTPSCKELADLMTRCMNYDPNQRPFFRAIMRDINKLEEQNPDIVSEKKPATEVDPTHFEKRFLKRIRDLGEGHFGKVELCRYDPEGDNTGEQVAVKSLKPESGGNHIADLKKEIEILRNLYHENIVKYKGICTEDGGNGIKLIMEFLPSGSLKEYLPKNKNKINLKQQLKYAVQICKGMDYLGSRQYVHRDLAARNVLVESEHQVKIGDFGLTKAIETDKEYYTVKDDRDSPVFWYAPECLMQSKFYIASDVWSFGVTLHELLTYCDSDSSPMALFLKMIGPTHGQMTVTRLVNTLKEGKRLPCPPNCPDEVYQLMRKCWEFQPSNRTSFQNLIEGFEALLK
UniProt Q14764: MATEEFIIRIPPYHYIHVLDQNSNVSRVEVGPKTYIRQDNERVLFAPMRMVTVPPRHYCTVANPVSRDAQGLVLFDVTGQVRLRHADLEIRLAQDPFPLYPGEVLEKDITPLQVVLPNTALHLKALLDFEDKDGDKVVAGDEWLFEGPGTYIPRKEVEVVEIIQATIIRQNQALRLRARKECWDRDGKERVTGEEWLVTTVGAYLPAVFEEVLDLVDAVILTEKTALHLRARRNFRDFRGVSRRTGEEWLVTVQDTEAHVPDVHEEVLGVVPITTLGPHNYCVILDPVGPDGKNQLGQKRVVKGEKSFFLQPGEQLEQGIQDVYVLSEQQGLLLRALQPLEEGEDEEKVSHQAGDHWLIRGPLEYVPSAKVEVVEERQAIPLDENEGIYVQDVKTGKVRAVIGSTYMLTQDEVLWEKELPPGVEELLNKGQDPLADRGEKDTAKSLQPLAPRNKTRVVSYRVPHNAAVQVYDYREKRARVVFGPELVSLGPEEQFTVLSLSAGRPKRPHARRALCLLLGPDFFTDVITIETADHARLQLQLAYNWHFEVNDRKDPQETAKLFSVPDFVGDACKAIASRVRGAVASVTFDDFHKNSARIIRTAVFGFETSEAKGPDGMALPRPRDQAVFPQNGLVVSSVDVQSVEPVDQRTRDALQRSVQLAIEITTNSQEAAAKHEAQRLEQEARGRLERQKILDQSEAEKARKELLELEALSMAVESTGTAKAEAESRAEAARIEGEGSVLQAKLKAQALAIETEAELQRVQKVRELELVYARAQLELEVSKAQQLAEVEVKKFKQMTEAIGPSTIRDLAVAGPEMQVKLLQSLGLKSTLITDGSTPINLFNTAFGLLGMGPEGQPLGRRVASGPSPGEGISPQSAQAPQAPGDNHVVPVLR
UniProt P52332: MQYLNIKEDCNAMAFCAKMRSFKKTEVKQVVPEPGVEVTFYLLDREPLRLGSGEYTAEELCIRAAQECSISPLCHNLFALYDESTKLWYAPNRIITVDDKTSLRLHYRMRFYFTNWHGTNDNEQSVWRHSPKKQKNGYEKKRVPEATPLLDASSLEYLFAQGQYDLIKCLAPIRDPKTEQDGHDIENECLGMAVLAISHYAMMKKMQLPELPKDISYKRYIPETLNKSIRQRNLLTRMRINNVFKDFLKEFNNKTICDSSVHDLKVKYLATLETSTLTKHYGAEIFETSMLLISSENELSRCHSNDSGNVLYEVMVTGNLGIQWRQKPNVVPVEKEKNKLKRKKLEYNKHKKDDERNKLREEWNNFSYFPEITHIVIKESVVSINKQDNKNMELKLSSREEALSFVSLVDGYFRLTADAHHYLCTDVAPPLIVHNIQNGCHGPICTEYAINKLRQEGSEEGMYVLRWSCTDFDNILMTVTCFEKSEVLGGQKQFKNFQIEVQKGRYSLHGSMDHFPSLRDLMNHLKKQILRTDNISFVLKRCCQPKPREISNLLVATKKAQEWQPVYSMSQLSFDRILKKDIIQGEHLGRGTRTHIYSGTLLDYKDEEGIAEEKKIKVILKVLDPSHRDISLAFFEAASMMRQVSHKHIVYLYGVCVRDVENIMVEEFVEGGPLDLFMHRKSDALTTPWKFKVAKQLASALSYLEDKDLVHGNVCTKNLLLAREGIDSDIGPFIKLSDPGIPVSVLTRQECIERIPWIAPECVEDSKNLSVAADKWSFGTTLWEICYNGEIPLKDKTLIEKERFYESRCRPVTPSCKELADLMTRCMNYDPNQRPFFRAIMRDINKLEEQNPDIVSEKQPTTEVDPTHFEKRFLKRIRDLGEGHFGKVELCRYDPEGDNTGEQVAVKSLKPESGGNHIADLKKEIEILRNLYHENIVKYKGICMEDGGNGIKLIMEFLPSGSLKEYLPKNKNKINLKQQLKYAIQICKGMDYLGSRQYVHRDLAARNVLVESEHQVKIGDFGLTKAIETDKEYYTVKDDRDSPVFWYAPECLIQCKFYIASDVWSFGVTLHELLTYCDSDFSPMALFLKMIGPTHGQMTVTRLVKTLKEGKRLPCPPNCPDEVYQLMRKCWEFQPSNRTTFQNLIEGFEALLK

These are yes or no findings as the source states them, for the method shown. In cells and extracts the contact can be indirect. Some results given as binding are weak or reduced against the parent protein; the word gives no strength. For some of these results: Sequences can lack the tags named with a protein.

For one assay, the target named is HA-IL-4Rα (UniProt P24394). The assay is described as follows: co-IP; HEK293T co-transfected for 36 h; NP-40 lysis buffer (150 mM NaCl, 20 mM Tris-HCl pH 7.4, 1% NP-40); antibody overnight at 4°C, protein A/G agarose; washed five times with NP-40 buffer containing 1 M NaCl; immunoblot. (In general: In western blotting, separated proteins are transferred to a membrane and probed.)

The next assay deals with Flag-JAK1 (UniProt P23458). The assay is described as above.
In assay [1] the target is T1, Flag-tagged STAT6 (signal transducer and activator of transcription 6) (UniProt P42226).
T1 sequence: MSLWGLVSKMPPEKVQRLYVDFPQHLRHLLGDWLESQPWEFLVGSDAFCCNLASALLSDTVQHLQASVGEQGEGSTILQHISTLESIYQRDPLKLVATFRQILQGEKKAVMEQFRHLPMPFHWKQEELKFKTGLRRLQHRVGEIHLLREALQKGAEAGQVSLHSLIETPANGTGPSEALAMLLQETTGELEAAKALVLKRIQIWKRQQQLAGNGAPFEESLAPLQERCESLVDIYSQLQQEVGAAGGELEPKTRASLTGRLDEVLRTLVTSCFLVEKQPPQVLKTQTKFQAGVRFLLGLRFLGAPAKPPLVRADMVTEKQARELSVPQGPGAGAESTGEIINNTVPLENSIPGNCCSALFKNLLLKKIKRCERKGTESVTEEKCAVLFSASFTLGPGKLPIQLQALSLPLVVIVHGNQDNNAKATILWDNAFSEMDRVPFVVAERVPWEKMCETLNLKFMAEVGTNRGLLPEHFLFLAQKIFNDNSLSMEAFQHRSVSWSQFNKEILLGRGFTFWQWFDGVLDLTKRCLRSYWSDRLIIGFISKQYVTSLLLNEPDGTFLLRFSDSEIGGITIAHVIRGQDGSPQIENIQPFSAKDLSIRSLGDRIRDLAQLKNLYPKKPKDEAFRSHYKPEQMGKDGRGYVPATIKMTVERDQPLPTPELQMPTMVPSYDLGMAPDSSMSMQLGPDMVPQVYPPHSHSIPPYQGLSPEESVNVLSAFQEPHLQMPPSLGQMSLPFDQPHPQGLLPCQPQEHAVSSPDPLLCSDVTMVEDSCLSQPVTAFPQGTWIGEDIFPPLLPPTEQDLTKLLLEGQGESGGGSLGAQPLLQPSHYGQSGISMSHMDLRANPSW
Described as above.

Assay [2] concerns the target T2, STAT6, endogenous in mouse BMDMs (mouse (endogenous in BMDMs)) (UniProt P52633).
T2 sequence: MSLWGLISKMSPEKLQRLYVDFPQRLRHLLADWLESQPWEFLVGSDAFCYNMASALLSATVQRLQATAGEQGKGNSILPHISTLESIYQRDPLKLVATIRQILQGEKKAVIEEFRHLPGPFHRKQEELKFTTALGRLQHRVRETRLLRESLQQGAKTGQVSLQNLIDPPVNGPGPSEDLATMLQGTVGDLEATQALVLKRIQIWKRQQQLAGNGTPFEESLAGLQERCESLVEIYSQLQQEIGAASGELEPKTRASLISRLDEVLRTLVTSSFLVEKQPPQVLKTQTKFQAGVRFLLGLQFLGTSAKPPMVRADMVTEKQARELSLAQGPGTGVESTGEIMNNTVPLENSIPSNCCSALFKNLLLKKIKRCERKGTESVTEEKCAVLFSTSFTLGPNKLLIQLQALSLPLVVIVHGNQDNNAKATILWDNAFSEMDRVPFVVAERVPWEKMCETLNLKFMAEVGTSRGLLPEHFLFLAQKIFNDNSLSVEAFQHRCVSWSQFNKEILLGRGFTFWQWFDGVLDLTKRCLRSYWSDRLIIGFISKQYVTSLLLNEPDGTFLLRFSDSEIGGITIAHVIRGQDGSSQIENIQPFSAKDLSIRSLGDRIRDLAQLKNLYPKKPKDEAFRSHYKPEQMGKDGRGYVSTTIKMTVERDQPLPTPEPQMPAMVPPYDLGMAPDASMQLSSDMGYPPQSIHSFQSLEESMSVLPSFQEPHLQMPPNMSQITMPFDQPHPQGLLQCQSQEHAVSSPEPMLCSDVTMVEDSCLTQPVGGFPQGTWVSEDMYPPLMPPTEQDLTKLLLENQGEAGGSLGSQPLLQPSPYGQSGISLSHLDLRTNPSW
Put plainly: co-IP; endogenous Co-IP in mouse BMDMs (Wt; for JAK1-STAT6 also Mvp-/-), stimulated with medium or IL-4 for 30 min; immunoblot.

Regarding Flag-MVP (from UniProt Q14764 1-893), in the assay with HA-IL-4Rα, the binding entry was “no binding”.
With “HA-tagged MVP (major vault protein) (from UniProt Q14764 1-893)”, the binding entry (in the assay with Flag-JAK1; in assay [1]) was “binds” in each case.
In the case of “JAK1, endogenous in mouse BMDMs (from UniProt P52332 1-1153)”, in assay [2], the binding result is on record as “binds”.
